This test addresses Flag-tagged CSB (human) (UniProt Q03468). Nature of the test: co-IP; lysates (RIPA buffer) of CSIAN cells co-transfected with Flag-tagged CSB and a Myc-tagged protein, 24 hr post transfection; anti-Flag M2-agarose overnight; Western blot with anti-Myc. In general terms: In western blotting, separated proteins are transferred to a membrane and probed.

Chains of the proteins cited; added tags and fusions are not shown.
UniProt Q03468: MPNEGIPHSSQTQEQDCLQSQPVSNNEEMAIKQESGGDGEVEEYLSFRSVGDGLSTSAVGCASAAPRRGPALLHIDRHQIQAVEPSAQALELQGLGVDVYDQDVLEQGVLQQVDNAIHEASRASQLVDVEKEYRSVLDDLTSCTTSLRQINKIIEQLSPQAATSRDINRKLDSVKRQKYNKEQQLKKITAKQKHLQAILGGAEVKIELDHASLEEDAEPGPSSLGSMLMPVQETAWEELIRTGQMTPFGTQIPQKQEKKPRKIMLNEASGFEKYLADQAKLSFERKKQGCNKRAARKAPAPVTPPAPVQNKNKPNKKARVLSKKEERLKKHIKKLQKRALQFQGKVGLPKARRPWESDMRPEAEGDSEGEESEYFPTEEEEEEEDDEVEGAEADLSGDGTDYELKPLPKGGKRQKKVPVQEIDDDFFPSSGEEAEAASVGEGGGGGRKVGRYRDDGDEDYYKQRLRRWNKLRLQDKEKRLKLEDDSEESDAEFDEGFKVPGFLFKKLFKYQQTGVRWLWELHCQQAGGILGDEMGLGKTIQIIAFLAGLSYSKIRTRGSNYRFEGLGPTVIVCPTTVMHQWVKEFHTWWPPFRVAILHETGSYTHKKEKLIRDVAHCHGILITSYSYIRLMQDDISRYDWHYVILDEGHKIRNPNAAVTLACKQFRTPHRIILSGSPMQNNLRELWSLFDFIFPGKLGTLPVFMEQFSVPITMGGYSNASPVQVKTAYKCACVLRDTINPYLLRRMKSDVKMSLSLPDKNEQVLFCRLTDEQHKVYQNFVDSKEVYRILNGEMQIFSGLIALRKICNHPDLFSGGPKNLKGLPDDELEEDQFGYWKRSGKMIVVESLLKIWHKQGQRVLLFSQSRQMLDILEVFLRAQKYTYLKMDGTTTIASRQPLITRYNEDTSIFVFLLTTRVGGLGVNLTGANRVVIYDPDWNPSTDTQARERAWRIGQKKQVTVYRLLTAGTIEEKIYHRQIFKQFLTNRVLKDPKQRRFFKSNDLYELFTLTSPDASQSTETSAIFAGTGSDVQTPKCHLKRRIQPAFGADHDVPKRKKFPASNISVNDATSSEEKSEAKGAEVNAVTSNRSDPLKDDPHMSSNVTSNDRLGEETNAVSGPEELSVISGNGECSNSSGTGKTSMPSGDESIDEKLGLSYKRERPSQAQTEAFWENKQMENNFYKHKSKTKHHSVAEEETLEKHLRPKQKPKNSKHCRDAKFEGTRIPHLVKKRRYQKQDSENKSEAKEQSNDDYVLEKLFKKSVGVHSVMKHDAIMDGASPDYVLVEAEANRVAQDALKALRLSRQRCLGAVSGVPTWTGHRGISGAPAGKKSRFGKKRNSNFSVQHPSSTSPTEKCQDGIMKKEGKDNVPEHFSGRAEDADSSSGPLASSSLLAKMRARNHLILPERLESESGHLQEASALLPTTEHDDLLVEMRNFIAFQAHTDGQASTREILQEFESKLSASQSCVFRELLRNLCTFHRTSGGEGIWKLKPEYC
UniProt Q86VP6: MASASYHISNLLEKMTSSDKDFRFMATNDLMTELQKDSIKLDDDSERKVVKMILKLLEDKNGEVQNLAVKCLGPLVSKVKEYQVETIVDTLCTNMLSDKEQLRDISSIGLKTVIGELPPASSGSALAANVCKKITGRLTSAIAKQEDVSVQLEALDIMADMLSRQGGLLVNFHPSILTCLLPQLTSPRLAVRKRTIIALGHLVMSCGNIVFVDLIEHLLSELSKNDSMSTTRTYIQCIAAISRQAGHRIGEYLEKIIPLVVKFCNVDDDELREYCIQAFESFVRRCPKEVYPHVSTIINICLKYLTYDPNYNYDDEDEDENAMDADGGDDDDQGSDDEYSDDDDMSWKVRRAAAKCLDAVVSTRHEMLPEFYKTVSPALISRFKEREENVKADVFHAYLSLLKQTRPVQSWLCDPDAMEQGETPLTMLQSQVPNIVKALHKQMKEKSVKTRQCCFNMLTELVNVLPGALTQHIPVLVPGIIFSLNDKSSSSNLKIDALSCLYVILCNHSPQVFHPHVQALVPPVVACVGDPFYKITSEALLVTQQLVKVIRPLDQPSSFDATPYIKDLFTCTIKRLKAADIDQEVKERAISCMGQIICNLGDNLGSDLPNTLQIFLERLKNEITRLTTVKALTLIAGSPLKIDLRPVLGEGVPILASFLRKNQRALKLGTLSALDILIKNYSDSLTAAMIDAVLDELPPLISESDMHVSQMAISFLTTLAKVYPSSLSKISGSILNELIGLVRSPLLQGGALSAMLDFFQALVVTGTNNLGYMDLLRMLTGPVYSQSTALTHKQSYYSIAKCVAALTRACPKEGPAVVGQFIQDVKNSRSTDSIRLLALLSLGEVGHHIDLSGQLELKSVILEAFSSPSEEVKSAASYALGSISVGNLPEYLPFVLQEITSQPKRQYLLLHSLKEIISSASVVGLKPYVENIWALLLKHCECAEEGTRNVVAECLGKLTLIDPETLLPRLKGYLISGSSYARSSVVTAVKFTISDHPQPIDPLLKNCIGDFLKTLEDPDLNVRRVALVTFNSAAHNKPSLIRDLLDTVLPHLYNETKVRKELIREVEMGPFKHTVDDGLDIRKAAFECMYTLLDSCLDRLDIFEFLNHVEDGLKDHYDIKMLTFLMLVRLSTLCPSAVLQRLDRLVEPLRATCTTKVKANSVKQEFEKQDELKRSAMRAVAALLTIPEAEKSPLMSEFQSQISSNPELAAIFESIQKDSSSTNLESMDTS
UniProt P17844: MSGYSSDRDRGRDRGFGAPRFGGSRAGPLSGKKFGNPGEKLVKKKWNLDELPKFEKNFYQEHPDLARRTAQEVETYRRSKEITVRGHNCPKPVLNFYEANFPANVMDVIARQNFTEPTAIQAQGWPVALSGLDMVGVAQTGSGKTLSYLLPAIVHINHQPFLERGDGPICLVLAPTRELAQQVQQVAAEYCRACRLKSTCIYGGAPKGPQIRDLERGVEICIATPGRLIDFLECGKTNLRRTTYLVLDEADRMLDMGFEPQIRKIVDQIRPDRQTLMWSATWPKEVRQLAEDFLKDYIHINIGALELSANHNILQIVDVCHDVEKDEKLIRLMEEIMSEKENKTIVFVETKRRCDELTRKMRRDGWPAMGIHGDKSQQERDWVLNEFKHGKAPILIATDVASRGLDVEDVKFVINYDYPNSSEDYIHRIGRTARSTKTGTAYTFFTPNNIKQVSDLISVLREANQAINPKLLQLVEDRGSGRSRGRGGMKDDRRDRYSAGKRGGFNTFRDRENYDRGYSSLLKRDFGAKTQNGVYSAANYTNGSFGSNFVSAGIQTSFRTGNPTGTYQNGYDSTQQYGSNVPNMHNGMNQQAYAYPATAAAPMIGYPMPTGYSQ
UniProt Q13547: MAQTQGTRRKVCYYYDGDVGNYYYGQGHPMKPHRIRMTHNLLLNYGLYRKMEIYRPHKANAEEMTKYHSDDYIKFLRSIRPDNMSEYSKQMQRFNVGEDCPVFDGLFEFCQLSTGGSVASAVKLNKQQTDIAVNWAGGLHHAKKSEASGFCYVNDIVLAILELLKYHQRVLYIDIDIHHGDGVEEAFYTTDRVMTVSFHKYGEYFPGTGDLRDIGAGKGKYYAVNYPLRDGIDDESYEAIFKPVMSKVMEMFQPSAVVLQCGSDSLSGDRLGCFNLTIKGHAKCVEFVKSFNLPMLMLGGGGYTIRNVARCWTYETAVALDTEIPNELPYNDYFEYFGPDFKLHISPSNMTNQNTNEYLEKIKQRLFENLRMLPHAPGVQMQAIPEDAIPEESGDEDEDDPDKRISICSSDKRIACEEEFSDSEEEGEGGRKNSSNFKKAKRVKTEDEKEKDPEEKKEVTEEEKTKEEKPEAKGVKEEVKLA
UniProt O43242: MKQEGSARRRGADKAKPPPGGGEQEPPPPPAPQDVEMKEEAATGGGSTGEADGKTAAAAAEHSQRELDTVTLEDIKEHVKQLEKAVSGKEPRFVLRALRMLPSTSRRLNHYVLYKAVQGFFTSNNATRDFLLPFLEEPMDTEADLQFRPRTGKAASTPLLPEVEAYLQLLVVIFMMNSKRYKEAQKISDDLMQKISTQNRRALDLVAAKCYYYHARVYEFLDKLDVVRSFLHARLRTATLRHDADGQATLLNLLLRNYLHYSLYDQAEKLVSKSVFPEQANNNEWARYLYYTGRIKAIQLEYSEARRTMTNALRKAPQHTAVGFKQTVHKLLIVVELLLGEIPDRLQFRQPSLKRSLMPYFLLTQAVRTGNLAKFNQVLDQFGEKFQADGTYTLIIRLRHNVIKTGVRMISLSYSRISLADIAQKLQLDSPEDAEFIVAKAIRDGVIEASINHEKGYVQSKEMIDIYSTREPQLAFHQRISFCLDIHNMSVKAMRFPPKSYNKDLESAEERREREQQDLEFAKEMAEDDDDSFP
UniProt P11387: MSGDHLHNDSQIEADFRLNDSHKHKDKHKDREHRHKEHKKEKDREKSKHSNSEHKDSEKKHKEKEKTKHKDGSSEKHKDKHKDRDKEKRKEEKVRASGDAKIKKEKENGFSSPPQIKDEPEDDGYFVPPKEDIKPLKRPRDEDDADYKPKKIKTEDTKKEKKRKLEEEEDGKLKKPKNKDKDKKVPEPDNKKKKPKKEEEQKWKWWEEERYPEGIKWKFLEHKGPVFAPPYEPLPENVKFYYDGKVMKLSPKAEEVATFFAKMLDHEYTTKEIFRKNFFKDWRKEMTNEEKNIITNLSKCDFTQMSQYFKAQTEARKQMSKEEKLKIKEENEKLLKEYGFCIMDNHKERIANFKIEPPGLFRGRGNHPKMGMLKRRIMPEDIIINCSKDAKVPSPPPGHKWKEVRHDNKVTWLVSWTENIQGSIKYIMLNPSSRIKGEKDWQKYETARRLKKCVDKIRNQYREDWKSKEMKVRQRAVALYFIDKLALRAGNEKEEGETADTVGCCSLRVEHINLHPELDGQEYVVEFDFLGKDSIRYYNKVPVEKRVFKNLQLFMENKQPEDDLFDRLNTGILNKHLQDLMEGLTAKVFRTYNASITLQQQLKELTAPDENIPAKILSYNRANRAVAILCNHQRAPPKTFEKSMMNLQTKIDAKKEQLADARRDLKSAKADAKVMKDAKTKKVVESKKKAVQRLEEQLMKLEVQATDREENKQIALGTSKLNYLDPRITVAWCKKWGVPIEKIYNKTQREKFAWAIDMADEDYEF
UniProt Q93009: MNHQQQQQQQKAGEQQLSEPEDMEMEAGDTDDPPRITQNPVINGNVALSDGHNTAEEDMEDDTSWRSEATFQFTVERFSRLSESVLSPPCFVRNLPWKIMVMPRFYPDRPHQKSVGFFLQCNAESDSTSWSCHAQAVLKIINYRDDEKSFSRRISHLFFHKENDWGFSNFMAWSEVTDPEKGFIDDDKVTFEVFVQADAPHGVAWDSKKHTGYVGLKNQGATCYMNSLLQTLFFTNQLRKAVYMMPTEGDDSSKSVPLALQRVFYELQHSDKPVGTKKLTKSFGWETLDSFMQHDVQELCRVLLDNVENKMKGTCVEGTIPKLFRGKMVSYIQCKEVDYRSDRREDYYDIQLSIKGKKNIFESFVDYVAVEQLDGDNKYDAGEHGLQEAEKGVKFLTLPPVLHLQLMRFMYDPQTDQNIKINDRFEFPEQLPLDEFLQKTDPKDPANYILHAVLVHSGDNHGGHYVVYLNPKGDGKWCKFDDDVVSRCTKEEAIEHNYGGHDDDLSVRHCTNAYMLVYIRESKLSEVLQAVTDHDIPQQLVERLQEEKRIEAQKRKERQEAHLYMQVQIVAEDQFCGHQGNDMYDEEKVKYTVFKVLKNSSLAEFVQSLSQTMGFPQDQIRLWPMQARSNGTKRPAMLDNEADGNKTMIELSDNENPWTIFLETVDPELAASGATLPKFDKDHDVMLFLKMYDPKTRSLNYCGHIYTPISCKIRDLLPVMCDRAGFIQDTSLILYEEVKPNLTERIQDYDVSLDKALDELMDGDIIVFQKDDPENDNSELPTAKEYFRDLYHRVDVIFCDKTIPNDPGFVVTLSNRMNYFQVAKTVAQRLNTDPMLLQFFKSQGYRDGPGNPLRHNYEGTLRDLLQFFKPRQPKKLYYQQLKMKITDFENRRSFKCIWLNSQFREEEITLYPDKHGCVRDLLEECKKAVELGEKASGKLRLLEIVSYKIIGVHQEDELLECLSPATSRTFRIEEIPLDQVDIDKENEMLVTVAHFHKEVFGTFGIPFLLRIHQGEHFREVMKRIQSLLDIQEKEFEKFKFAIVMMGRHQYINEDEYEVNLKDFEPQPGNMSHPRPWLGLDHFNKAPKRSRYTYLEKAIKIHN

No constants are given. Whether binding was seen depends on the method and setting. In cells and extracts the contact can be indirect. Some results given as binding are weak or reduced against the parent protein; the word gives no strength.

In the case of “Myc-tagged CAND1 (from UniProt Q86VP6 1-1230)”, the binding entry is “binds”. The entry for “Myc-tagged DDX3X (from UniProt O00571 1-662)” is “binds”; for “Myc-tagged DDX5 (from UniProt P17844 1-614)” it is “binds”. The entry for “Myc-tagged DDX17 (from UniProt Q92841 1-729)” is “binds”. As for “Myc-tagged HDAC1 (from UniProt Q13547 1-482)”, the binding result was “binds”. For “Myc-tagged PSMD2 (from UniProt Q13200 1-908)”, the binding result was “no binding”. Next, “Myc-tagged PSMD3 (from UniProt O43242 1-534)”: “binds”; “Myc-tagged RBBP4 (from UniProt Q09028 1-425)”: “binds”. The entry for “Myc-tagged SMARCA1 (from UniProt P28370 1-1042)” is “binds”; for “Myc-tagged SMARCA2 (from UniProt P51531 1-1590)” it is “binds weakly”; for “Myc-tagged TOP1 (from UniProt P11387 1-765)” it is “binds”.

Regarding “Myc-tagged USP7 (from UniProt Q93009 1-1102)”, the binding entry is “binds”. The entry for “Myc-tagged XRCC5 (from UniProt P13010 1-732)” is “binds”.

Source of the values: publication PMC4451243.
